Experimental findings from paper PMC11594608, “Sulfonamide-Based Inhibition of the β-Carbonic Anhydrase from A. baumannii, a Multidrug-Resistant Bacterium” (International Journal of Molecular Sciences, 2024) are described below.

In the assay the target is T1, βAbauCA (CanB) (Acinetobacter baumannii, UniProt A0A7U3Y636).
T1 construct: gene AB57_1063; oligomer not determined here
T1 sequence (A0A7U3Y636 1-204): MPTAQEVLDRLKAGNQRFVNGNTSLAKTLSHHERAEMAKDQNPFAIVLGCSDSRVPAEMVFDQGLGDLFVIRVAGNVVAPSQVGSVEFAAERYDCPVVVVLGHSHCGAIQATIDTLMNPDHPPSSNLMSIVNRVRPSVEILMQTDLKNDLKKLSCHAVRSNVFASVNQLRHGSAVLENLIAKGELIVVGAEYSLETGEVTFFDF
Put plainly: stopped-flow CO2 hydrase assay. The format is biochemical. The conditions noted are these: read-out: KI (nM) ^a / βAbauCA.

In the case of `Nc1ccc(S(N)(=O)=O)cc1` [compound 2, 2], the Ki turned out to be 650 nM.
